The text below walks through data of US11939241B2, “Stable percarboxylic acid compositions and uses thereof” (Ecolab USA Inc., priority 2012, dated 2024).

This data set can be described thus: Gelling test: kinetic viscosity of a guar based gel fluid. The conditions noted are these: 2.5 hr.

With `OO` [Composition H2O2, hydrogen peroxide], the “impact on gel property” value runs as follows: (7 ppm H2O2 with 80 ppm POAA, compared with glutaraldehyde control) “no impact on the gel property”; (14 ppm H2O2 with 80 ppm POAA) “Gel failure”.
